Values of other authors, collected in patent publication US12440487B2, “Method of normalizing the neutrophil to lymphocyte ratio in cancer patients with a selective glucocorticoid receptor antagonist” (Corcept Therapeutics Incorporated, priority 2019, dated 2025).
At least one structure is not confirmed: it was looked up by name or label, or the drawing left a doubt.

Tested on: circulating neutrophils and lymphocytes
Details: in vivo; cited from earlier work

Q: With `C[C@@H]1C[C@H]2[C@@H]3CCC4=CC(=O)C=C[C@]4(C)[C@@]3(F)[C@@H](O)C[C@]2(C)[C@@]1(O)C(=O)CO` [dexamethasone] as the compound, how does the “effect on circulating lymphocytes” value read?
A: The value was “decreases”.

Q: What about the “effect on circulating neutrophils” value of the same compound?
A: Its value is “increases”.
